Data published in PubChem BioAssay AID1259415 (National Center for Advancing Translational Sciences (NCATS), 2018).
About 18,000 (4.4%) of roughly 410,000 compounds were called active. Inconclusive means that the source gave no clear call. Such entries were picked first, then a sample of the others. Cut-off read from the data, not from the text of the source: active = activity change below about -60%; inconclusive = no clear call, values can overlap the other calls; inactive = above about -39%.
% is set by controls: 0 for no effect and ±100 for the full control effect.

Test: qHTS Assay for inhibitors of the human cytomegalovirus (HCMV)
Details: HFF cells, HCMV-luciferase reporter, 72 h; at 57.5 µM; stronger effect = lower value
Outline: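 Luciferase read-out from HCMV-luciferase-infected HFFs (MOI 1 PFU/cell) 72 h post infection at 37C; compounds added after 16 h cell attachment; activity normalized between buffer-only basal and Salinomycin (10uM) inhibitor controls.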
For `C=CCc1c(C)nc2c(-c3ccccc3)cnn2c1N1CCOCC1`, the activity change, negative = inhibition was inconclusive: -49.5%. With `CC(CC(=O)Nc1cc([N+](=O)[O-])ccc1Cl)c1ccccc1` (stereo not drawn) the activity change, negative = inhibition was inconclusive: -43.1%. With `Cc1ccc(S(=O)(=O)N2CCC[C@H]2C(=O)OCc2cc(=O)oc3cc(C)ccc23)cc1` the activity change, negative = inhibition was inactive: -8.58%. In the case of `CCc1ccc(S(=O)(=O)/N=C2\C=C(Nc3ccc(C(=O)O)cc3)C(=O)c3ccccc32)cc1`, the activity change, negative = inhibition is reported as active: -97.6%. With `COc1ccccc1N(CC(O)Cn1nc(C)cc1C)S(=O)(=O)c1ccccc1` (stereo not drawn) the activity change, negative = inhibition was inconclusive: -41.5%. With `CCOC(=O)N1CCN(C(=O)c2ccc3c(c2)NC(=O)/C(=C\c2ccc(OC)c(OC)c2)S3)CC1` the activity change, negative = inhibition was inconclusive: -51.3%. With `Cc1ccc(S(=O)(=O)N2CCN(c3ncccn3)CC2)cc1C` the activity change, negative = inhibition was inactive: 3.88%. For `CC(=O)N(O)c1ccc(C=Cc2ccccc2)cc1`, the activity change, negative = inhibition was active: -98.8%. In the case of `COc1ccc(S(=O)(=O)N2CCSC2c2ccc(OC)c(OC)c2)cc1` (stereo not drawn), the activity change, negative = inhibition is reported as active: -62.4%. For `CNC(C)C(=O)NC(C(=O)N1CCCC1C(=O)NNc1ccccc1)C(C)C` (stereo not drawn), the activity change, negative = inhibition was inconclusive: -40.3%. For `CCS(=O)(=O)N1CCC(C(=O)O)CC1`, the activity change, negative = inhibition was inconclusive: -52.2%. For `CC1CCN(S(=O)(=O)c2ccc3c(ccn3CCC(=O)NCc3ccc(N(C)C)cc3)c2)CC1`, the activity change, negative = inhibition was inactive: 5.8%. With `Cc1csc(-c2cccnc2)n1` the activity change, negative = inhibition was inconclusive: -45.7%. In the case of `C/C(N)=C(/C#N)C(=O)CSc1nc2ccccc2c(=O)n1-c1ccccc1C`, the activity change, negative = inhibition is reported as inconclusive: -41.8%. In the case of `Cc1cc(N2CCN(c3nc(-c4ccccc4)cs3)CC2)c2ccccc2n1`, the activity change, negative = inhibition is reported as inconclusive: -53.5%. With `CCc1ccc(NC(=O)CC2C(=O)N(c3cccc(C)c3)C(=O)N2Cc2ccco2)cc1` (stereo not drawn) the activity change, negative = inhibition was inconclusive: -46.6%. In the case of `Cn1c(=O)c2ccccc2n(Cc2cccc(F)c2)c1=O`, the activity change, negative = inhibition is reported as inconclusive: -50.5%. With `COc1ccc(-c2onc(C)c2-c2cnn(-c3ccccc3)c2)c(O)c1` the activity change, negative = inhibition was inactive: -8.04%. For `COc1ccc(CC2C(=O)Nc3ccc(Br)cc32)cc1OC` (stereo not drawn), the activity change, negative = inhibition was inactive: -19.5%. With `CCc1ccc(NC(=O)CSc2nc3ccccc3nc2N2CCCCC2)cc1` the activity change, negative = inhibition was inactive: -36.7%. With `COCCCNC(=S)N/N=C/c1ccc2ccccc2c1` the activity change, negative = inhibition was inconclusive: -40.5%. For `O=C(Cn1c(=O)oc2cc(S(=O)(=O)N3CCc4ccccc43)ccc21)NC1CCCC1`, the activity change, negative = inhibition was inconclusive: -50.1%. For `Cc1cc(/C=C2/NC(=O)N(c3ccccc3)C2=O)c(C)n1C(C)C`, the activity change, negative = inhibition was inconclusive: -49.8%. In the case of `COC(=O)c1cc(S(=O)(=O)N2CCN(c3cccc(OC)c3)CC2)cn1C`, the activity change, negative = inhibition is reported as inconclusive: -51.7%. For `Cn1c(=O)[nH]c(=O)c2c1nc(CN1CCN(c3ccccc3F)CC1)n2CCCc1ccccc1`, the activity change, negative = inhibition was inconclusive: -53.6%. In the case of `CCOC(=O)c1nnn(-c2nonc2-c2ccccc2)c1C`, the activity change, negative = inhibition is reported as inconclusive: -40.9%. With `COc1cc(CCCN2C(=O)C(=O)NC[C@@H]2CCCCN)cc(OC)c1OC` the activity change, negative = inhibition was inconclusive: -53.9%. In the case of `O=C(Nc1ccc(Cl)c(C(F)(F)F)c1)C1CCN(S(=O)(=O)c2cccc3nonc23)CC1`, the activity change, negative = inhibition is reported as inconclusive: -47.2%. In the case of `COc1cc(OC)c(OC)cc1/C=C(\C#N)C(=O)NCc1cccs1`, the activity change, negative = inhibition is reported as inactive: -19.7%. With `CC1(C)NC(=O)N(CCC(=O)Nc2cc(C(F)(F)F)ccc2Cl)C1=O` the activity change, negative = inhibition was inconclusive: -57%. In the case of `OC1CCN(c2ncnc3nc[nH]c23)CC1`, the activity change, negative = inhibition is reported as inconclusive: -48.6%. For `COc1ccc(C(CNC(=O)c2cc(S(=O)(=O)N3CCCC3)ccc2Cl)N2CCCC2)cc1` (stereo not drawn), the activity change, negative = inhibition was inactive: -29.4%. For `COc1ccc(S(=O)(=O)N(CC(=O)Nc2cccnc2)c2ccc(Cl)cc2)cc1`, the activity change, negative = inhibition was active: -104%. For `COc1ccc(CNC(=O)Cn2c(=O)cc(-c3ccccc3)c3c(C)nn(C)c32)cc1`, the activity change, negative = inhibition was inactive: 3.38%. In the case of `COc1cccc(CC2(CO)CCN(Cc3cnc(-c4cccc(C)c4)nc3)CC2)c1`, the activity change, negative = inhibition is reported as inconclusive: -42%. For `Cc1cccc(N2CCN(C(=O)Cn3nc(Cc4cccnc4)c4ccccc4c3=O)CC2)c1C`, the activity change, negative = inhibition was inconclusive: -53.4%. With `O=C(CSc1ccc2c(c1)OCCO2)Nc1ncc(Cl)cc1Cl` the activity change, negative = inhibition was inconclusive: -40.9%. For `Cc1nc(NC(=O)c2ccccc2)sc1-c1csc(NCc2ccccc2)n1`, the activity change, negative = inhibition was inconclusive: -50.2%. For `O=C1[C@@H]2[C@@H]3C[C@@H]([C@H]4ON=C(c5ccc(Cl)cc5Cl)[C@@H]34)[C@@H]2C(=O)N1C1CCCCC1`, the activity change, negative = inhibition was inconclusive: -49%. With `COc1ccc(NC(=O)c2c(NCc3cccc(OC)c3)sc3c2CCCC3)cc1` the activity change, negative = inhibition was inconclusive: -45.3%. For `CCn1c(C)nc2cc(S(=O)(=O)Nc3ccc(C)cc3)ccc21`, the activity change, negative = inhibition was inconclusive: -46.2%. In the case of `Cc1nc(-n2[nH]c3c(c2=O)CCCC3)[nH]c(=O)c1Cc1ccccc1`, the activity change, negative = inhibition is reported as active: -103%. In the case of `CCN(CC)C(=O)CSc1nc2[nH]ncc2c(=O)[nH]1`, the activity change, negative = inhibition is reported as inconclusive: -43.3%.
